In all, about 260,000 compounds went through this assay and about 1,500 (0.58%) were called active. The shares of active, inactive and inconclusive entries below differ from those in the screen.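 The calls were made as follows: active = inhibition above a set limit at one or more doses, reproduced on every date tested; inconclusive = results disagree between test dates, or hit never tested in dose response; inactive = the rest.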
Target: Virion infectivity factor (Human immunodeficiency virus type 1 group M subtype B (isolate BH10)) + Virion infectivity factor (Human immunodeficiency virus type 1 group M subtype B (isolate BRU/LAI)) + Virion infectivity factor (Human immunodeficiency virus type 1 group M subtype B (isolate PCV12)) + Virion infectivity factor (Human immunodeficiency virus type 1 group M subtype B (isolate HXB2)) + DNA dC->dU-editing enzyme APOBEC-3G (Homo sapiens) (UniProt P69720+P69721+P69722+P69723+Q9HC16)
Test: inhibitors of Vif binding to APOBEC3G peptide, primary screen, biochemical, TR-FRET, GST-Vif 1-94, biotin-A3G peptide, dose response retest (AID 1117319);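 also: Vif residues 1-94 fused to GST binding biotinylated APOBEC3G peptide 110-148; 0% = full assay without inhibitor and 100% = GST in place of GST-Vif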
Details: hits give high values

Chains of the proteins cited; added tags and fusions are not shown. Lines headed by an entry give the natural chain unless they say otherwise; changes in a name come on top.
UniProt P69720: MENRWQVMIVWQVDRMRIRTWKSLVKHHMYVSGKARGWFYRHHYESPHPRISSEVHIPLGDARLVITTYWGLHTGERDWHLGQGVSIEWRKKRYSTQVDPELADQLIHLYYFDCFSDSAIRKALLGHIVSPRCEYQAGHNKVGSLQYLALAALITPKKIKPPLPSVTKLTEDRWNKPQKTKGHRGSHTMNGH
UniProt P69721: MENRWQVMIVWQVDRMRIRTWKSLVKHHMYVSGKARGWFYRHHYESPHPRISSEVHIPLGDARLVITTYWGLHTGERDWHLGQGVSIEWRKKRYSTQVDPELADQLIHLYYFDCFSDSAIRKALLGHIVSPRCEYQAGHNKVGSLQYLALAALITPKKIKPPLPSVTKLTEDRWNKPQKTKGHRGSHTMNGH
UniProt P69722: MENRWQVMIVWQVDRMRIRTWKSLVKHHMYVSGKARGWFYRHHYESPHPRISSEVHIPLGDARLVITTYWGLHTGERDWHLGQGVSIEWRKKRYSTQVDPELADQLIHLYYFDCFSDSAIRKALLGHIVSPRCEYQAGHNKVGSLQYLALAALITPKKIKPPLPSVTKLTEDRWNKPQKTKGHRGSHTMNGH
UniProt P69723: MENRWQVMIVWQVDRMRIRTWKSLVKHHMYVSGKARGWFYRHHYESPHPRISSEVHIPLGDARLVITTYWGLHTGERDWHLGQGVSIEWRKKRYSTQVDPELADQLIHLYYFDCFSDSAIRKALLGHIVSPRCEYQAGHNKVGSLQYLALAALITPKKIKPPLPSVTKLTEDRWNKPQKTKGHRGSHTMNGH
UniProt Q9HC16: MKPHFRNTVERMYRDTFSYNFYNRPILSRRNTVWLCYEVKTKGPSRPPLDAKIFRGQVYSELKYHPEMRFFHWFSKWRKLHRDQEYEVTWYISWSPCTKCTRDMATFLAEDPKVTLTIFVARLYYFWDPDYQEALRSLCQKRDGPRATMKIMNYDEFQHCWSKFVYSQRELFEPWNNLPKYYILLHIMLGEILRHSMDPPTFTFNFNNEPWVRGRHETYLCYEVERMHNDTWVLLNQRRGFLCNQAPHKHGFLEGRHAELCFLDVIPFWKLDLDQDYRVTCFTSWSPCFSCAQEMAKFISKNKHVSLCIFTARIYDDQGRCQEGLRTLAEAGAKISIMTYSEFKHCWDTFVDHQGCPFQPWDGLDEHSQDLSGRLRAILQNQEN

| Structure (SMILES) | inhibition |
| --- | --- |
| O=S(=O)(c1ccc(-c2csc(Nc3ccc(F)cc3)n2)cc1)N1CCCC1 | inconclusive: 39% |
| O=C(CNC(=O)c1ccc(F)cc1)Nc1ccccc1C(F)(F)F | inconclusive: 61.2% |
| COc1ccc(CNC(=O)c2ccccc2NS(C)(=O)=O)cc1 | inactive: 1.78% |
| Cc1ccnc(NC(=O)C(C)n2cc([N+](=O)[O-])cn2)c1 (stereo unspecified) | inconclusive: 33.1% |
| CN=c1scc(-c2ccccc2F)n1/N=C/c1ccc[nH]1 | inactive: 3.11% |
| COc1ccc(OC)c(S(=O)(=O)N(C(C)=O)c2ccc3oc(=O)sc3c2)c1 | inactive: 13.9% |
| O=C(O)c1ccc2c(c1)C(=O)N(NC(=O)c1ccc(O)cc1)C2=O | inconclusive: 40% |
| Cc1cc(OC2CCCCC2)nc(NCc2ccccc2)n1 | inconclusive: 41.7% |
| COc1ccc2nc3c(nc2c1)CCCC3 | inactive: -1.28% |
| C=CCNC(=O)c1ccc(N(C)S(=O)(=O)c2ccc(OC)cc2)cc1 | inconclusive: 61.2% |
| Cc1ccc(NC(=S)NCc2ccccc2Cl)c(C)c1 | inconclusive: 34.9% |
| CCn1c(C)nc2cc(S(N)(=O)=O)ccc21 | inconclusive: 51.7% |
| OCCC1CN(Cc2cccc3c2OCO3)CCN1Cc1ccccc1 (stereo unspecified) | inconclusive: 42% |
| C=C(C)Cn1c(=O)c(NC(=O)c2ccccc2)c2n(c1=S)CCC2 | inconclusive: 36.5% |
| COc1ccc(-c2nc(CN3CCC(C(=O)N4CCc5ccccc54)CC3)c(C)o2)cc1OC | inconclusive: 54.4% |
| COc1cccc(C(=O)NNC(=O)Cc2ccc([N+](=O)[O-])cc2)c1 | inconclusive: 44% |
| Cc1c(C#N)c2ccccc2n1CC(=O)N1CCCC1 | inconclusive: 11.1% |
| Cc1ccc(SCc2nc(-c3ccccn3)no2)cc1 | inconclusive: 18.7% |
| Cc1cccn2c(=O)nc(SCC(=O)N3CCCCC3)nc12 | inactive: -0.7% |
| O=C(Nc1ccc2nc(-c3ccco3)c(-c3ccco3)nc2c1)N1CCN(c2ccccn2)CC1 | inconclusive: 51.2% |
| O=C(Cn1cc([N+](=O)[O-])cn1)NCc1ccco1 | inconclusive: 47.6% |
| COc1ccc(N2C(=O)CC(N3CCC(O)(c4cccc(C(F)(F)F)c4)CC3)C2=O)cc1 (stereo unspecified) | inconclusive: 14.1% |
| COc1ccccc1N1CCN(C(=O)c2cc3c(s2)CCC3)CC1 | inconclusive: 61% |

| Structure (SMILES) | inhibition |
| --- | --- |
| CNC(=O)COC(=O)Cc1ccc(Cl)cc1 | inconclusive: 49.7% |
| COc1ccc(C(=O)NC(CC(C)C)C(=O)O)cc1OC (stereo unspecified) | inconclusive: 44.5% |
| COc1cc(CNCCc2ccccc2)ccc1OCc1ccc(Cl)nc1 | inactive: 2.97% |
| O=C1c2ccccc2NC(c2ccccc2)N1Cc1ccco1 (stereo unspecified) | inconclusive: 38.7% |
| NC(=O)c1ccccc1NC(=O)Nc1cccc2ccccc12 | inconclusive: 34.9% |
| CCn1c(C)c(C(C)=O)c(NCc2ccccc2)nc1=S | inconclusive: 42% |
| COc1ccc([N+](=O)[O-])cc1N(CC(O)Cn1nnc2ccccc21)S(=O)(=O)c1ccc(C)cc1 (stereo unspecified) | inconclusive: 44.2% |
| CC(CCc1ccco1)NC(=O)Cn1ncc2c(=O)oc3ccccc3c21 (stereo unspecified) | inconclusive: 33.6% |
| Cc1ccc(Nc2c(-c3ccco3)nc3ccccn23)cc1 | inactive: 12% |
| CC(C)(C)NC(=O)NC(=O)CSc1ncccn1 | inconclusive: 40.4% |
| O=C(CSCc1ccc(Cl)cc1)NCc1ccc2c(c1)OCO2 | inconclusive: 36.9% |
| Cc1ccc(-c2noc(CCC(=O)NCCN3CCc4ccccc4C3)n2)cc1 | inconclusive: 60% |
| COc1cc(/C=C2\SC(=S)N(NC(=O)c3ccccc3O)C2=O)ccc1O | inactive: 5.15% |
| CCOC(=O)/C(=C/Nc1ccc(F)cc1)[N+](=O)[O-] | inconclusive: 42.1% |
| CC(=O)Nc1ccc(S(=O)(=O)NNC(=O)C(=O)NNc2ccccn2)cc1 | inconclusive: 50% |
| CCOC(=O)N1CCN(C(c2cccnc2)c2ccc3cccnc3c2O)CC1 (stereo unspecified) | inconclusive: 40.1% |
| Cc1cccc(N=Cc2cc3c(cc2[N+](=O)[O-])OCO3)c1 | inconclusive: 49% |
| CCOC(=O)c1nc(C)nc(Sc2n[nH]c(-c3ccccc3)n2)c1C | inconclusive: 54.6% |
| COC(=O)[C@@]1(Cc2ccc(F)cc2)[C@H]2c3cc(C(=O)N4CCCC4)n(CCO)c3C[C@H]2CN1C(=O)c1ccccc1 | inconclusive: 34% |
| COc1ccc(N/C(C)=C/C(=S)Nc2ccccc2)cc1 | inconclusive: 55.3% |
| CN(C)Cc1c(O)ccc2c1O/C(=C\C=C\c1ccccc1)C2=O | inconclusive: 33.6% |
| Cc1ccc(S(=O)(=O)N2CCOCC2)cc1NC(=O)COc1ccc(-c2nnco2)cc1 | inconclusive: 62.5% |
| O=C1NC(=Nc2ccccc2)SC1Cc1cccc(Cl)c1Cl (stereo unspecified) | inconclusive: 35.7% |

Twelve entries out of the list, sorted by number of heavy atoms, ascending.

| Structure (SMILES) | inhibition |
| --- | --- |
| CNC(=O)COC(=O)Cc1ccc(Cl)cc1 | inconclusive: 49.7% |
| CCOC(=O)/C(=C/Nc1ccc(F)cc1)[N+](=O)[O-] | inconclusive: 42.1% |
| Cc1cccc(N=Cc2cc3c(cc2[N+](=O)[O-])OCO3)c1 | inconclusive: 49% |
| Cc1ccc(Nc2c(-c3ccco3)nc3ccccn23)cc1 | inactive: 12% |
| O=C1c2ccccc2NC(c2ccccc2)N1Cc1ccco1 (stereo unspecified) | inconclusive: 38.7% |
| COc1ccccc1N1CCN(C(=O)c2cc3c(s2)CCC3)CC1 | inconclusive: 61% |
| CCOC(=O)c1nc(C)nc(Sc2n[nH]c(-c3ccccc3)n2)c1C | inconclusive: 54.6% |
| CC(=O)Nc1ccc(S(=O)(=O)NNC(=O)C(=O)NNc2ccccn2)cc1 | inconclusive: 50% |
| Cc1ccc(-c2noc(CCC(=O)NCCN3CCc4ccccc4C3)n2)cc1 | inconclusive: 60% |
| COc1ccc(N2C(=O)CC(N3CCC(O)(c4cccc(C(F)(F)F)c4)CC3)C2=O)cc1 (stereo unspecified) | inconclusive: 14.1% |
| COc1ccc([N+](=O)[O-])cc1N(CC(O)Cn1nnc2ccccc21)S(=O)(=O)c1ccc(C)cc1 (stereo unspecified) | inconclusive: 44.2% |
| COC(=O)[C@@]1(Cc2ccc(F)cc2)[C@H]2c3cc(C(=O)N4CCCC4)n(CCO)c3C[C@H]2CN1C(=O)c1ccccc1 | inconclusive: 34% |

(continued)

| Structure (SMILES) | inhibition |
| --- | --- |
| CNC(=O)c1sccc1SCc1ccc(Cl)cc1Cl | inconclusive: 40.2% |
| CCOC(=O)C1CCCN(C(=O)Cc2ccc(Cl)cc2)C1 (stereo unspecified) | inconclusive: 56.6% |
| CCCOc1ccccc1N/C(N)=N/c1nc(C)cc(C)n1 | inconclusive: 40.2% |
| O=C(COc1ccc(S(=O)(=O)NC2CCCCC2)cc1Cl)NCc1cccnc1 | inconclusive: 60.9% |
| CC(C)COc1ccc(C(=O)NCc2ccco2)cc1 | inconclusive: 41.4% |
| COc1ccc2[nH]c(=O)c(CN(Cc3nnnn3Cc3ccco3)C3CCCCC3)cc2c1 | inconclusive: 55.6% |
| O=C1OC(c2cccs2)=N/C1=C\c1ccc(-c2ccccc2Cl)o1 | inconclusive: 43.4% |
| CC(=O)Nc1ccc(S(=O)(=O)C(C#N)c2nc3ccccc3nc2NCCCO)cc1 (stereo unspecified) | inconclusive: 49.4% |
| O=C(/C=C/c1ccc2c(c1)OCO2)c1ccc(F)cc1 | inconclusive: 41.9% |
| CC(C)c1ccc(/C=N/NC(=O)c2cc(-c3cccc([N+](=O)[O-])c3)n[nH]2)cc1 | inconclusive: 45.7% |
| CCC(=O)NC(c1ccc(C)cc1)c1cc([N+](=O)[O-])c2cccnc2c1O (stereo unspecified) | inconclusive: 35.5% |
| O=[N+]([O-])c1c(Nc2ccccc2O)ccc2nonc12 | inactive: 1.82% |
| Cn1c(/C=C/c2ccc([N+](=O)[O-])o2)nc2ccccc2c1=O | inconclusive: 35.3% |
| CCC(C(=O)O)P(=O)(c1ccc(Cl)cc1)c1ccc(Cl)cc1 (stereo unspecified) | inconclusive: 35.5% |
| COc1ccc(OCCSc2ncnc3nc[nH]c23)cc1 | inconclusive: 27.7% |
| CC1CCCN(CC(O)COc2ccc(Cl)cc2)C1 (stereo unspecified) | inconclusive: 54.4% |
| COc1cccc(-n2c(C)c3c(OC)cccc(=O)c3c2C)c1 | inactive: 31.7% |
| CN(C(=O)c1cc2n(n1)C(C(F)(F)F)CC(c1ccco1)N2)c1ccccc1 (stereo unspecified) | inconclusive: 51.4% |
| COc1ccc(OC)c(NC(=O)CNC(=O)Cn2cnc3ccccc3c2=O)c1 | inconclusive: 36.1% |
| CCCCn1c(SCC(=O)N2CCOCC2)nnc1-c1cccs1 | inconclusive: 1.75% |
| CC1(C)CC(=O)CC(C)(C)N1OC(=O)c1ccco1 | inactive: 0.85% |
| Cc1onc(-c2ccccc2)c1C(=O)Nc1cccnc1 | inconclusive: 16.2% |
| CCCC/C(C)=N/NC(=O)Nc1ccccc1 | inconclusive: 41.5% |

Some of the entries so far, with tabs.
Structure (SMILES)	inhibition
CCC(=O)NC(c1ccc(C)cc1)c1cc([N+](=O)[O-])c2cccnc2c1O (stereo unspecified)	inconclusive: 35.5%
O=[N+]([O-])c1c(Nc2ccccc2O)ccc2nonc12	inactive: 1.82%

(further entries)

| Structure (SMILES) | inhibition |
| --- | --- |
| O=C(NC(=S)N1CCN(c2ccc([N+](=O)[O-])cc2Cl)CC1)c1ccco1 | inconclusive: 42% |
| O=C(COC(=O)c1ccc(Br)cc1)NCc1ccc(F)cc1 | inconclusive: 42% |
| COc1ccc(Cl)cc1NC(=S)NNC(=O)CC(C)C | inconclusive: 38.3% |
| O=c1[nH][nH]c(-c2ccccc2)c1C=Nc1cccc(Cl)c1 | inconclusive: 35.3% |
| COc1cccc(CNS(=O)(=O)c2ccc3c(c2)CCN3C(=O)C2CC2)c1 | inactive: 5.57% |
| O=C(CCS(=O)(=O)Cc1ccccc1F)NCc1ccccc1Cl | inconclusive: 34.5% |
| CCCN(CCC)C(=O)Cn1c(=O)c2ccccc2n2c(=S)sc(-c3ccccc3C)c12 | inconclusive: 46% |
| CC(C)CN1CN(Cc2ccccc2)CNC1=S | inconclusive: 43.2% |
| CCN(C(=O)C(C)N1C(=O)/C(=C/c2cccs2)SC1=S)C1CCS(=O)(=O)C1 (stereo unspecified) | inconclusive: 39.5% |
| COc1ccccc1-n1c(C)nc(=O)c(-c2ccccc2)c1C | inconclusive: 37.5% |
| Cc1cccc(NC(=O)c2ccc(S(=O)(=O)NCc3cccnc3)cc2)c1 | inconclusive: 58.2% |
| C=CCNC(=O)C1CCN(c2ccc(S(=O)(=O)N3CCOCC3)cc2[N+](=O)[O-])CC1 | inconclusive: 50.9% |
| O=[N+]([O-])c1ccc(-c2nc(=S)c3c(o2)CCCC3)cc1 | inactive: 0.66% |
| COc1ccc(/C=C/C(=O)Nc2ccccc2C(=O)O)cc1 | inconclusive: 37.8% |
| COc1ccc(NC(=O)C(=O)NCc2ccncc2)c(OC)c1 | inconclusive: 40.7% |
| CCOC(=O)N/N=C(/c1ccccc1)C1CCCCC1 | inactive: -4.75% |
| Cn1cnc([N+](=O)[O-])c1N=C(N)N | inconclusive: 52.3% |
| Cc1cc(Cl)ccc1NC(=O)Cn1cncn1 | inconclusive: 39.1% |
| COc1ccc(N2CCN(C(=O)Cc3ccc(-n4c(=O)[nH]c5ccccc5c4=O)cc3)CC2)cc1 | inconclusive: 41.6% |
| O=C1CCCC2=C1C(c1ccc(O)c(O)c1)c1c(ccc3ncccc13)N2 (stereo unspecified) | inconclusive: 56.1% |
| Cc1ccc(C)c(-n2cc(-c3ccc(Cl)cc3)nc2SCC(=O)NC2CCS(=O)(=O)C2)c1 (stereo unspecified) | inconclusive: 62% |
| O=C(NCC(=O)N1CCCC1)c1ccccc1F | inconclusive: 62% |

From PubChem BioAssay AID1117319 (Southern Research Institute, 2015)
